# Results from the supplement of paper PMC3334620.
# The full ranking holds about 33,000 sequences; the median of “E-score (-0.5 to 0.5)” is about -0.0034, and the highest 2% start at about 0.25. This is one part of the list.
# Target: T1, Yap3 (UniProt P38749)
# T1 sequence: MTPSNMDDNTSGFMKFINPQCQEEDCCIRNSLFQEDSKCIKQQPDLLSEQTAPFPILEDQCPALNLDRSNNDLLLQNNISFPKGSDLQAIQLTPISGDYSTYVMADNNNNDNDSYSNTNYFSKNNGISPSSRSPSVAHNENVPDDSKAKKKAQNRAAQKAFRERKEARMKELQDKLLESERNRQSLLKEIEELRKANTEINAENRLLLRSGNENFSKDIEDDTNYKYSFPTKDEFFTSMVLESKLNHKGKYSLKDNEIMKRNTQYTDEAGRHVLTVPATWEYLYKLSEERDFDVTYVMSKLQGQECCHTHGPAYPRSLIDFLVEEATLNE
# Assay: PBM E-score (8-mer binding enrichment) (E-score (-0.5 to 0.5)); higher = stronger / more preferred TF binding
# Conditions: protein concentration: 100 nM; construct: GST-full length
# Outline: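 Full-length yeast transcription factors or their DNA-binding domains, GST-tagged and expressed with PURExpress, were applied at about 100-200 nM to universal all-10-mer Agilent arrays. These arrays had been made double-stranded by primer extension on fresh or once-stripped slides. Detection used fluorescent anti-GST, normalisation used masliner, and E-scores for ungapped eight-base words pooled with reverse complements came from the Universal PBM Analysis Suite.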
row,Sequence,PBM E-score
1,TAACGCTA,0.023
2,AACCTGTG,0.00997
3,AATTGGGA,0.127
4,ATCTCTGC,0.0777
5,AGTAAATA,0.26
6,AACGACCG,-0.00686
7,AGATAGCG,-0.0874
8,CTGCACAC,-0.138
9,ACTCAAGA,-0.00341
10,ATATTTTC,0.261
11,AAGGCCTC,-0.224
12,ACGCTGTC,-0.2
13,CTACGAGC,-0.0914
14,CCTAGTCG,-0.101
15,CTGGGCCC,-0.273
16,AGGTTGTC,-0.11
17,GTTTGCAA,0.157
18,CGACGCTC,-0.0108
19,AAGCTCGC,-0.134
20,CGTGAGTA,-0.0244
21,AACTTGGG,0.0624
22,GACCGCCA,-0.171
23,CGTACTTA,0.22
24,ATGATCTC,0.0357
25,CAACCGCA,0.00088

row,Sequence,PBM E-score
1,CACCACCC,-0.144
2,AGCCAATA,-0.0264
3,CACTCTGG,-0.136
4,CGAGGTGA,0.156
5,CCATGGGG,-0.249
6,CACTCCCC,-0.227
7,GGAATCTA,0.0443
8,AAATAGTC,-0.0119
9,GAGAAGGC,-0.158
10,CACCAAAG,-0.0224
11,CTACCTGA,-0.141
12,AGACCCAT,-0.13
13,ACGGAGAA,0.175
14,CCGTCTTC,-0.0587
15,AATTGCCT,0.0982
16,ATATTGAG,0.194
17,AAGCTAAC,0.0596
18,CTCCCTGA,-0.234
19,TATGTCCA,-0.0626
20,GCAGCAAC,-0.00458
21,GGTGCAGA,-0.236
22,CGGGAGCA,-0.121
23,CACTTTGC,0.0341
24,ATGAACCC,-0.0359
25,AGGCCGAT,-0.125

row,Sequence,PBM E-score
1,AATCCATT,0.185
2,AACTTCCA,-0.0704
3,AGCGCTGG,-0.0762
4,CAACTAGG,0.0485
5,ATACATCC,0.0891
6,CAATTTCC,0.0859
7,GATGCAGC,-0.00792
8,CAGGTATC,-0.0433
9,TCACCACA,0.24
10,ATTACAAA,0.37
11,AACAATAC,0.0469
12,CATTTTTC,0.16
13,GTCTCATA,0.0492
14,AATGCGCA,0.295
15,AGTTACGG,-0.0635
16,CTTCGCAC,-0.0403
17,TGGAACAA,0.144
18,AATTCCTG,-0.00277
19,ATGTATTG,0.241
20,ACAAGAGC,-0.0498
21,GTGCGTAA,0.0963
22,CAGACAGC,-0.0819
23,CGGCCTTC,-0.172
24,CCATGTAC,0.0608
25,ACTAATAC,0.288

# Exported tab-delimited: part of the list above
row	Sequence	PBM E-score
1	TAACGCTA	0.023
2	AACCTGTG	0.00997
3	AATTGGGA	0.127
4	ATCTCTGC	0.0777
5	AGTAAATA	0.26
6	AACGACCG	-0.00686
8	CTGCACAC	-0.138
9	ACTCAAGA	-0.00341
10	ATATTTTC	0.261
11	AAGGCCTC	-0.224
12	ACGCTGTC	-0.2
14	CCTAGTCG	-0.101
16	AGGTTGTC	-0.11
18	CGACGCTC	-0.0108
19	AAGCTCGC	-0.134
20	CGTGAGTA	-0.0244
21	AACTTGGG	0.0624
22	GACCGCCA	-0.171
24	ATGATCTC	0.0357
25	CAACCGCA	0.00088
2	AGCCAATA	-0.0264
5	CCATGGGG	-0.249
7	GGAATCTA	0.0443
9	GAGAAGGC	-0.158
10	CACCAAAG	-0.0224
12	AGACCCAT	-0.13
13	ACGGAGAA	0.175
14	CCGTCTTC	-0.0587
15	AATTGCCT	0.0982
16	ATATTGAG	0.194
17	AAGCTAAC	0.0596
18	CTCCCTGA	-0.234
19	TATGTCCA	-0.0626
20	GCAGCAAC	-0.00458
22	CGGGAGCA	-0.121
23	CACTTTGC	0.0341
2	AACTTCCA	-0.0704
3	AGCGCTGG	-0.0762
4	CAACTAGG	0.0485
5	ATACATCC	0.0891
6	CAATTTCC	0.0859
7	GATGCAGC	-0.00792
8	CAGGTATC	-0.0433
9	TCACCACA	0.24
11	AACAATAC	0.0469
12	CATTTTTC	0.16
13	GTCTCATA	0.0492
14	AATGCGCA	0.295
15	AGTTACGG	-0.0635
16	CTTCGCAC	-0.0403
17	TGGAACAA	0.144
18	AATTCCTG	-0.00277
19	ATGTATTG	0.241
21	GTGCGTAA	0.0963
22	CAGACAGC	-0.0819
24	CCATGTAC	0.0608
25	ACTAATAC	0.288

# Following part

row,Sequence,PBM E-score
1,GGTTTGTA,0.0503
2,ACCAGGGG,-0.359
3,AAATCGAG,0.00012
4,CTGTTAAA,0.177
5,GCCGTAAC,-0.112
6,CGCTGCAC,-0.0733
7,ATTCAGCG,0.0709
8,AAGTCTTC,-0.098
9,AAATACGC,0.151
10,AGACCCTA,-0.116
11,CAAGCCAC,-0.279
12,CCGCCCGA,-0.047
13,ATACGAAA,0.21
14,AAATCCGC,-0.0284
15,CGGCACAA,0.00092
16,ACAATTCG,0.145
17,AGATGTTC,-0.111
18,GACCCACA,0.111
19,AAGTATAA,0.249
20,TCGAATCA,0.0851
21,ACTCCTTA,-0.0776
22,CATTCCTA,0.0844
23,GCCCACAA,-0.141
24,ACGGCACC,-0.18
25,AGCTCGAA,0.011

row,Sequence,PBM E-score
1,CAATGGCG,-0.126
2,TCGAGGCA,0.0984
3,GTGCCGCA,-0.0486
4,TCATTCCA,0.0786
5,AATACTGC,0.0602
6,CAGCCGGA,0.158
7,AGCCTAGA,-0.199
8,CATAGAAG,-0.0416
9,CAGCGGTA,0.104
10,ACGCCGCA,0.00689
11,TCCCTCCA,-0.266
12,CGTAGGGC,-0.148
13,AATTGACA,0.0681
14,GAAATGGC,-0.037
15,AAAAGCGC,-0.00165
16,GATAAATC,0.00972
17,ACGGGACT,-0.167
18,CAGTTACC,-0.0283
19,CGAGAGCC,-0.31
20,ATTGTCAA,0.106
21,AACTAACC,0.21
22,ACCTAAGT,0.177
23,AACCCCAC,-0.079
24,GCGGCGTA,0.0911
25,GACTCCCC,-0.328

row,Sequence,PBM E-score
1,CAAGCACG,-0.0217
2,AACCCCAT,-0.0254
3,TCTTCCCA,-0.223
4,CGGCCCAG,-0.332
5,CCTCGACG,-0.116
6,ACCACTAG,0.0307
7,ACCGTCAT,0.0559
8,CAGGGGTA,-0.101
9,CGCTAGCG,-0.112
10,AACCTTGT,-0.296
11,CCAATCCA,-0.0532
12,ACTCCAGC,-0.134
13,CCCGTCCG,-0.285
14,AAGAATGA,0.0757
15,AAGATGCT,-0.0179
16,GCGACAGC,-0.135
17,ACGTGGCC,-0.2
18,CGTTTCGA,-0.116
19,AAACTACC,0.133
20,AGGAGTGA,-0.0623
21,ATTAATTA,0.241
22,CAACCCGA,0.0578
23,ACATTGTG,0.0748
24,ACATGGCA,-0.0266
25,AGAGGGGG,-0.389

row,Sequence,PBM E-score
1,ACGCGAAG,0.0012
2,AAACACGG,-0.167
3,AAAGCTGG,-0.0132
4,GTGTCAAC,-0.133
5,AGAATTTG,0.107
6,GCTCCGTA,0.00319
7,ATATATAC,0.299
8,CATTCAAA,0.15
9,AGCTCCCG,-0.352
10,GTAGGAAA,0.121
11,AACCAGGG,-0.0811
12,TATATCCA,0.157
13,CACAGTCG,-0.0364
14,ATGCAACA,-0.00323
15,AATTGTCT,0.152
16,TACCGATA,0.0998
17,CAATTTTA,0.234
18,AGGGTTGG,0.153
19,GCCTATAA,0.0733
20,GCGGACAC,-0.0505
21,AACCCAGC,-0.19
22,CAACCCCG,-0.194
23,CGAACTCC,0.0291
24,GCCTCAGA,-0.0362
25,GCACGCTA,-0.0598

row,Sequence,PBM E-score
1,CTTGGTCA,0.0339
2,CGCTCATC,-0.00331
3,GCGGAAGA,0.0363
4,AGCGGGAG,-0.153
5,GGGTCACC,-0.343
6,ATATCCCC,0.0958
7,CAGATCGC,-0.036
8,ATGGGTCC,-0.192
9,AGCAGCTC,-0.291
10,AGGGCTAC,-0.147
11,GCGGCCCC,-0.403
12,TGTTTAAA,0.176
13,TATGGGCA,0.059
14,CGCGTGTC,0.145
15,GGATTTCA,0.0355
16,ATTTTAGC,-0.001
17,AGGTCAGG,-0.281
18,ATCTGGAC,-0.205
19,ACAGCTAA,-0.123
20,ATTAGGTG,0.00971
21,GAAAAGCC,-0.0554
22,ATCATACA,0.183
23,GAACAAGC,0.0587
24,ATCATTAG,0.129
25,ACCTGGTA,-0.124

row,Sequence,PBM E-score
1,CTGAACAG,-0.0257
2,GACTCACA,-0.0312
3,AGTTGATA,0.146
4,AGTCACTC,-0.112
5,ACGCGAAA,0.118
6,CTCGATCA,-0.104
7,CAGATAAG,-0.033
8,GTCTTATA,0.104
9,ACAGGGCA,0.0179
10,CACCTGTC,-0.0312
11,AGCACTCC,-0.138
12,GGTATTCA,0.17
13,CGCGCTGC,-0.00225
14,CCCGCTGC,-0.0956
15,CTGGAACA,0.117
16,GTCCCGCA,-0.185
17,GCGCTGCA,-0.0339
18,AGCAAACC,0.0941
19,ACGGTCCC,-0.379
